# Experimental data taken from publication PMC10288270.
# Sequences of proteins named here, by UniProt entry; tags and fusion partners are left off. Residues count along the entry.
# UniProt P05067, 672-691: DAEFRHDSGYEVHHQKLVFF
# The comparison behind a weaker result is the experiment's own reference, which may not be listed here.
# Key:
# Amyloid beta 1-40 = Amyloid beta 1-40 (UniProt P05067); assay: fluorescence recovery (FAM/BHQ1 dequenching); conditions: signal significantly lower than Abeta 1-42, 2 h, TBS: 1 mM Tris-HCl, 100 mM NaCl, 4 mM MgCl2, 5 mM KCl, pH 7.4, 37 C, aptamer refolded from 95 C, 2 uL of 10 uM aptamer, commercial protein, residues 672-711, folded or branched DNA
# Amyloid beta 1-20 = Amyloid beta 1-20 (UniProt P05067); assay: fluorescence recovery (FAM/BHQ1 dequenching); conditions: signal significantly lower than Abeta 1-42, 2 h, TBS: 1 mM Tris-HCl, 100 mM NaCl, 4 mM MgCl2, 5 mM KCl, pH 7.4, 37 C, aptamer refolded from 95 C, 2 uL of 10 uM aptamer, commercial protein, residues 672-691, folded or branched DNA
sequence,measurement,setting,value
TGGGGGGCGGACGATAGGGGCCCCCCGGTAGGATGGACG [Abeta aptamer (AAP)],binding result,Amyloid beta 1-40,binds more weakly
same,binding result,Amyloid beta 1-20,binds more weakly
